Drawing on PMC6249252, “COMP and TSP-4 interact specifically with the novel GXKGHR motif only found in fibrillar collagens” (Scientific Reports, 2018), this text covers binding for one substance.

Chains of the proteins cited; added tags and fusions are not shown. Lines headed by an entry give the natural chain unless they say otherwise; changes in a name come on top. Residues count along the entry.
UniProt P02454: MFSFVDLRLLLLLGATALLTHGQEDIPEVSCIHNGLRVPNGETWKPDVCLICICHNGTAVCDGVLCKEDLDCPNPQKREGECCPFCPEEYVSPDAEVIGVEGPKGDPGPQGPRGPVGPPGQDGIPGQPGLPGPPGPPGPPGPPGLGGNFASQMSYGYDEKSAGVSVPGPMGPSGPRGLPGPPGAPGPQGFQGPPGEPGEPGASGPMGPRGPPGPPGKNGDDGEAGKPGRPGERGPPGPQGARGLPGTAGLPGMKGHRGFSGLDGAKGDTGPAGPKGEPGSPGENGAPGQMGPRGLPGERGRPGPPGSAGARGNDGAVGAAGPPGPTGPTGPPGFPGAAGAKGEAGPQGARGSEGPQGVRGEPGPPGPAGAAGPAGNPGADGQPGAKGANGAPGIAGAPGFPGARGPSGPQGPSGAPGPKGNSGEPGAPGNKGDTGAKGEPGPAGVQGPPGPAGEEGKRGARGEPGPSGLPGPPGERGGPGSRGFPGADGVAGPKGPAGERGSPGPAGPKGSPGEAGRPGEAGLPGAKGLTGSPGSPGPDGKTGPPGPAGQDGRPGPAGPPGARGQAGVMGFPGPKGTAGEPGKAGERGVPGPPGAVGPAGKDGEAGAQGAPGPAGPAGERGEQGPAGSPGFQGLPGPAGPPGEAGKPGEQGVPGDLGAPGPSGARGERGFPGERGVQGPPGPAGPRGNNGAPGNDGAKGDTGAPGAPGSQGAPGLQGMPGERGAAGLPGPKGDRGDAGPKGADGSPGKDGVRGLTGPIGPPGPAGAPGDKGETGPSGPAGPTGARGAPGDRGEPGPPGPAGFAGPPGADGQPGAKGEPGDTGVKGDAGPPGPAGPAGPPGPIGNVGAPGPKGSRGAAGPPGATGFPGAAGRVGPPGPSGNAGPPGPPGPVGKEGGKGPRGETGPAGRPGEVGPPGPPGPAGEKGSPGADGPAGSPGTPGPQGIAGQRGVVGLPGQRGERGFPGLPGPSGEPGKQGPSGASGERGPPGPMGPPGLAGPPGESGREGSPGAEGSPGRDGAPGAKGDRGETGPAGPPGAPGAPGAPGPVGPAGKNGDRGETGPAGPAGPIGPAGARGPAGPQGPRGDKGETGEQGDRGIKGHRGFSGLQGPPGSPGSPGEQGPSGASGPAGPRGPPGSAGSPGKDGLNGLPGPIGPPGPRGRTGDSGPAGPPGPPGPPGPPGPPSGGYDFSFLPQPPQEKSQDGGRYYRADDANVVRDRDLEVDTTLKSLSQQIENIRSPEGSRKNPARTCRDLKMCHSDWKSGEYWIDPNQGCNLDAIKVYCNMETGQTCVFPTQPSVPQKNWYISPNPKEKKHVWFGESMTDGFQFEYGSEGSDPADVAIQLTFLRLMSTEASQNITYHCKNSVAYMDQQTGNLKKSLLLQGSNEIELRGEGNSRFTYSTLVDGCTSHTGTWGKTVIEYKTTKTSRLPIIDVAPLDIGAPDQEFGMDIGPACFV
UniProt P02466: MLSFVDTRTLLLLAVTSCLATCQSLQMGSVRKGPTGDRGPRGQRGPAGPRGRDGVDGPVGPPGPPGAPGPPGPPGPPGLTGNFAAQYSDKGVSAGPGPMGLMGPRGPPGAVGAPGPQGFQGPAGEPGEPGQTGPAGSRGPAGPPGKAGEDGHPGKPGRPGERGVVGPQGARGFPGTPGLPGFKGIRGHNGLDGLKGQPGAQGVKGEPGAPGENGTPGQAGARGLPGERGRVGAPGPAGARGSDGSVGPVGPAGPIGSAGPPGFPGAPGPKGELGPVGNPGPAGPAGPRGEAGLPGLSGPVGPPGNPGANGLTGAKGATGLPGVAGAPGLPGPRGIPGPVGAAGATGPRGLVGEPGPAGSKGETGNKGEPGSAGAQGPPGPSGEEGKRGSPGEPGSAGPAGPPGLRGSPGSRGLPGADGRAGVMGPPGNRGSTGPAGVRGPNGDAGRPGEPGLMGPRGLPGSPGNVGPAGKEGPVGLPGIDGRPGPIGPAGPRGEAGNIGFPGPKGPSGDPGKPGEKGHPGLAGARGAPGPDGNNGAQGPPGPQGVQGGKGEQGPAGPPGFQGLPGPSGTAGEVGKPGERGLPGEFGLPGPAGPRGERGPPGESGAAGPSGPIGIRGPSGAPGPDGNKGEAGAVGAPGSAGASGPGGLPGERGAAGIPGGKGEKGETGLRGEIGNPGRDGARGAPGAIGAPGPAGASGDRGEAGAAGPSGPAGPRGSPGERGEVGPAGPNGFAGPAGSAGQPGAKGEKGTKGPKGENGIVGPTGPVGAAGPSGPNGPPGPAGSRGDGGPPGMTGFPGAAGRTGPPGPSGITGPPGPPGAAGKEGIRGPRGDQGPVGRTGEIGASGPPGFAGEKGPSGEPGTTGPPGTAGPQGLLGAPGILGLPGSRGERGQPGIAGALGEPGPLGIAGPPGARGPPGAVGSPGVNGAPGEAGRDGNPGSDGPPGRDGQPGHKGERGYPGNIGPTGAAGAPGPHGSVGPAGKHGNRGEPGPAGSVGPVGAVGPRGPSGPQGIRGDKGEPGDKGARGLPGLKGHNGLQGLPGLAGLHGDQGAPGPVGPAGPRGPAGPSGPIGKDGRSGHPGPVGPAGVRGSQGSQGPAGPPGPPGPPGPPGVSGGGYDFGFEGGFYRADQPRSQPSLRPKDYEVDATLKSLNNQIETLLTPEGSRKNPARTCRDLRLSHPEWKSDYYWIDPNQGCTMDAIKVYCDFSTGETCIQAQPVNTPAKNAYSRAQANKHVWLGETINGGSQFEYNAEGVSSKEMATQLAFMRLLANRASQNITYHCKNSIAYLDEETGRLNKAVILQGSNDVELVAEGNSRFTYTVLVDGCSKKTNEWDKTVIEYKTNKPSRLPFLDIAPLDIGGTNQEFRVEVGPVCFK
UniProt P49747, residues 21-757: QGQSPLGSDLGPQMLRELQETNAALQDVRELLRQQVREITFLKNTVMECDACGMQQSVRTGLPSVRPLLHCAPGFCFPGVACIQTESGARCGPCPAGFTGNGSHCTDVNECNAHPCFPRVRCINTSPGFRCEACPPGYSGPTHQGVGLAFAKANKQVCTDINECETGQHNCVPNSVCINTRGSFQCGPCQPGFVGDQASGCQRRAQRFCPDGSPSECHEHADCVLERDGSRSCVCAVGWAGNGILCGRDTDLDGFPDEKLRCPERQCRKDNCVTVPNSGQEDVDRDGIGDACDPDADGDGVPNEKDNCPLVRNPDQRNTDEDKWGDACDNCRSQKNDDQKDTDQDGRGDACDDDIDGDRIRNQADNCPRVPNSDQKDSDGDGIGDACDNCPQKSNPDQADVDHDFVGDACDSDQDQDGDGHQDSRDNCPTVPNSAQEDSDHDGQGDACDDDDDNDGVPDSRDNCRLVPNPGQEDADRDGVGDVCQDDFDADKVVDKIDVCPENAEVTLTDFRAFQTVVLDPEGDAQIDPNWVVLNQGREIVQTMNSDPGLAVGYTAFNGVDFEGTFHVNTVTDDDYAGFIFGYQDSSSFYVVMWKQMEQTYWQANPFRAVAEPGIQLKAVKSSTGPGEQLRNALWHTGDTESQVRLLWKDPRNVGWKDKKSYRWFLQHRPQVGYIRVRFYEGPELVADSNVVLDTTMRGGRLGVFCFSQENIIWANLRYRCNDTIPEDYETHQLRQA

Results are given in words; binding and its absence hold for the method and conditions named. Some results given as binding are weak or reduced against the parent protein; the word gives no strength.

In this test the target is rat tail collagen I (rat) (UniProt P02454+P02466). Briefly: ELISA; foldon-stabilised collagen II library peptides and rat-tail collagen I coated at 10 ug/ml (500 ng per well) overnight at 4 °C; 200 nM pentameric COMP in TBS-T with 0.25% BSA, 1 h, room temperature; detected with anti-COMP antibody; both purified. For orientation: ELISA stands for enzyme-linked immunosorbent assay.

Take “cartilage oligomeric matrix protein (COMP), wild type, pentameric (from UniProt P49747 21-757)”: the binding result was “binds”.
